Experimental findings from doi:10.1101/2020.07.05.188557 are described below.

By UniProt entry, the sequences of proteins in these tests, tags left out. Where a name states a change or a piece, a line headed by the entry shows the natural chain unless it says otherwise.
UniProt Q02774, whole entry, looked up, stated change not applied: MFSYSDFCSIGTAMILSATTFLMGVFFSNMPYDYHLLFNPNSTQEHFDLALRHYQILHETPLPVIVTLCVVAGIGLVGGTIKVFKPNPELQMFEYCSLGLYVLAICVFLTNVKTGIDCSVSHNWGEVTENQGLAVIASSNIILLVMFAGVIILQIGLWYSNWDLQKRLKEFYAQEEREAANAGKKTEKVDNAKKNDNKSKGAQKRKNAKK

Results are given in words; binding and its absence hold for the method and conditions named. In cells and extracts the contact can be indirect. Sequences can lack the tags named with a protein.

This assay deals with T1, Gap1-Cub-GST-6xHA (S. cerevisiae) (UniProt P19145).
T1 sequence: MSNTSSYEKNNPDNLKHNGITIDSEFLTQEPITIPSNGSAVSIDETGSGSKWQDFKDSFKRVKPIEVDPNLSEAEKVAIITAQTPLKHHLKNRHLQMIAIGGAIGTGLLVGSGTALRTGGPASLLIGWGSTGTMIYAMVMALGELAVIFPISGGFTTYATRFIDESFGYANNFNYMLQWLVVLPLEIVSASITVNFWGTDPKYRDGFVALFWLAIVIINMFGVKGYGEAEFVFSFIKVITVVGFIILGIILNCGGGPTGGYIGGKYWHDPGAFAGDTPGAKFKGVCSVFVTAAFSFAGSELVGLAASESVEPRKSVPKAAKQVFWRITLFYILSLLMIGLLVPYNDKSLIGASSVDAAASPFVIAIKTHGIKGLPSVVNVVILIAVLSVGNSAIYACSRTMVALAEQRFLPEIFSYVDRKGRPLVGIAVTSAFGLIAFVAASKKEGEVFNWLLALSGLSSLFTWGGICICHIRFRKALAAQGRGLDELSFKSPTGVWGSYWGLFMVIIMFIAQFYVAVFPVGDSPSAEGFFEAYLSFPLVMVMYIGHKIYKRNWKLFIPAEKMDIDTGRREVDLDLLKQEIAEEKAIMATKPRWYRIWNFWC
Kind of assay: split reporter.

B1: shr3-35-NubA (protein, UniProt Q02774 1-210)
chain: MFSYSDFCSIGTAMILLLLTFLMGVFFSNMPYDYHLLFNPNSTQEHFDLALRHYQILHETPLPVIVTLCVVAGIGLVGGTIKVFKPNPELQMFEYCSLGLYVLAICVFLTNVKTGIDCSVSHNWGEVTENQGLAVIASSNIILLVMFAGVIILQIGLWYSNWDLQKRLKEFYAQEEREAANAGKKTEKVDNAKKNDNKSKGAQKRKNAKK
In the case of B1, the binding result is reported as “no binding”.
